Source: PubChem BioAssay AID1487 (National Center for Advancing Translational Sciences (NCATS), 2009)
The list shows a part of the results. Shown are side measurements of this screen, not its main read-out; they come without a call. Most of these compounds were active or inconclusive in the main read-out, so they are no random draw. The note in brackets gives the kind of curve behind each potency; many fits are weak.

Assay: qHTS Assay for Modulators of Lamin A Splicing
Conditions: HeLa LMNA splicing GFP/RFP minigene ratio, 48 h
In short: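 S3 HeLa cells stably expressing lamin A-EGFP splicing minigene plus DsRed2, 600 cells/well, 48 h compound exposure at 37C. Laser-scanning cytometry; analysed as GFP (500-530 nm)/RFP (575-640 nm) total intensity ratio; 0.5% DMSO vehicle.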

[1] = measured here: RFP viability control channel
[2] = measured here: GFP splicing reporter channel

| Structure (SMILES) | AC50 [1] | AC50 [2] |
| --- | --- | --- |
| O=C(NC1CC1)c1ccc(S(=O)(=O)NC2CCCCCC2)cc1 | 12.6 µM [rising, partial curve, poor fit] |  |
| Cc1cc(C(=O)CN(Cc2ccc(F)cc2)S(=O)(=O)c2ccc3c(c2)OCCO3)c(C)n1C | 12.6 µM [rising, partial curve] | 6.31 µM [rising, full curve, poor fit] |
| Cc1ccc(CNC(=O)c2ccc(-n3c(C)cc4c3CCCC4)cc2)cc1 | 25.1 µM [falling, partial curve] | 31.6 µM [falling, partial curve] |
| CCS(=O)(=O)c1ccc2oc(SCC(=O)N3CCCCC3)nc2c1 | 3.55 µM [falling, partial curve] | 2.51 µM [falling, partial curve] |
| C/C(=N/NC(N)=S)c1ccc(Br)s1 | 25.1 µM [falling, single point] |  |
| COc1ccc2oc(-c3ccc(C)c(NC(=O)c4cccnc4)c3)nc2c1 | 0.891 µM [falling, full curve, poor fit] | 1.26 µM [falling, full curve, poor fit] |
| CC1(C)C2CC=C(/C=N/NC(=O)C3CC3)C1C2 (stereo not given) |  | 1 µM [falling, full curve, poor fit] |
| COc1cccc(N(C(=O)c2ccn[nH]2)C2(C(=O)Nc3c(C)cccc3C)CCCCC2)c1 | 20 µM [rising, partial curve, poor fit] |  |
| Cc1ccc(OCC(=O)Nc2ccc3nc(SCC(=O)N4CCCC4)sc3c2)cc1 | 12.6 µM [falling, partial curve, poor fit] | 15.8 µM [falling, single point] |
| Oc1ccc(Nc2nc(N3CCCC3)c3ccccc3n2)cc1 | 11.2 µM [rising, partial curve] | 10 µM [rising, partial curve, poor fit] |
| COc1ccc(C(c2nnnn2CCc2ccccc2)N2CCN(C3CCCC3)CC2)cc1 (stereo not given) | 35.5 µM [falling, single point] | 35.5 µM [falling, single point] |
| Cc1ccccc1NC(=O)c1ccc(N/N=C/c2ccccc2O)c([N+](=O)[O-])c1 | 35.5 µM [falling, single point] | 35.5 µM [falling, single point] |
| Cc1cc(C)c2sc(N(Cc3cccnc3)C(=O)CCS(=O)(=O)c3ccccc3)nc2c1 | 35.5 µM [falling, partial curve] | 11.2 µM [falling, partial curve, poor fit] |
| Cc1ccc(Cl)cc1NC(=O)COC(=O)CC(C)(C)C | 22.4 µM [rising, partial curve, poor fit] | 35.5 µM [rising, single point] |
| CCOC(=O)c1c(NC(C)=O)sc2c(O)cccc12 | 35.5 µM [rising, single point] |  |
| O=C(NCc1cccc(C(F)(F)F)c1)C1CC(c2c(Cl)cccc2Cl)=NO1 (stereo not given) | 5.62 µM [falling, single point] |  |
| Cc1c(NC(=S)SCc2ccccc2)c(=O)n(-c2ccccc2)n1C | 12.6 µM [rising, partial curve] |  |
| CCOc1ccccc1OCC(=O)N/N=C(\C)Cc1ccc(OC)cc1 | 6.31 µM [rising, full curve] |  |
| Cc1cc(C)cc(CSc2nnc(C)c(=O)[nH]2)c1 |  | 8.91 µM [rising, partial curve, poor fit] |
| CC(=O)C1=C(C)NC(SCC(=O)c2cc(Cl)ccc2Cl)=C(C#N)C1c1ccco1 (stereo not given) | 14.1 µM [rising, single point] | 11.2 µM [rising, partial curve] |
| Cc1ccc(OCCn2cc(/C=C(\C#N)C(=O)NCC3CCCO3)c3ccccc32)cc1 (stereo not given) | 11.2 µM [rising, partial curve, poor fit] |  |
| CCOc1cc(/C=C2\SC(=N)N(c3nccs3)C2=O)ccc1OCCN1CCOCC1 | 7.94 µM [rising, partial curve] | 5.62 µM [rising, full curve, poor fit] |
| Cc1ccc(NS(=O)(=O)c2ccc3[nH]c4c(c3c2)CCCCCC4)cc1Cl | 15.8 µM [falling, single point] | 17.8 µM [falling, partial curve] |
| CC(=O)c1c(C)oc2ccc(N(C(=O)c3ccncc3)S(=O)(=O)c3ccccc3)cc12 | 20 µM [falling, partial curve, poor fit] |  |
| CCOC(=O)C(NC(=O)c1cccc(Cl)c1)(OCc1ccccc1)C(F)(F)F (stereo not given) | 35.5 µM [rising, single point] | 12.6 µM [rising, single point] |
| Cc1c(C(=O)NCc2ccccc2)sc2nc3n(c(=O)c12)CCC3 |  | 0.0562 µM [falling, full curve, poor fit] |
| CCCCC(=O)NNC(=S)NC(=O)c1cccc([N+](=O)[O-])c1 |  | 12.6 µM [falling, single point] |

Filtered by structure: the compounds so far with an aryl thioether with sulfur outside any ring (three)

| Structure (SMILES) | AC50 [1] | AC50 [2] |
| --- | --- | --- |
| CCS(=O)(=O)c1ccc2oc(SCC(=O)N3CCCCC3)nc2c1 | 3.55 µM [falling, partial curve] | 2.51 µM [falling, partial curve] |
| Cc1ccc(OCC(=O)Nc2ccc3nc(SCC(=O)N4CCCC4)sc3c2)cc1 | 12.6 µM [falling, partial curve, poor fit] | 15.8 µM [falling, single point] |
| Cc1cc(C)cc(CSc2nnc(C)c(=O)[nH]2)c1 |  | 8.91 µM [rising, partial curve, poor fit] |

Further structures:

| Structure (SMILES) | AC50 [1] | AC50 [2] |
| --- | --- | --- |
| Cc1ccc(C(=O)N/C(=C\c2ccccc2)C(=O)NCCCn2ccnc2)cc1 | 3.98 µM [falling, full curve, poor fit] |  |
| CCOc1c(Cl)cc(C(=O)Nc2ccccc2C(=O)O)cc1Cl |  | 3.16 µM [falling, full curve] |
| CSc1nc2sc3c(c2c(=O)n1-c1ccccc1C)CCCC3 | 11.2 µM [rising, single point] |  |
| CCC(=O)N1CCN(c2ccc(Cl)cc2NC(=O)Cc2ccccc2)CC1 |  | 10 µM [rising, partial curve] |
| Cc1cccc(NC(=S)N=Nc2c(O)[nH]c3ccccc23)c1 | 22.4 µM [rising, partial curve] | 14.1 µM [rising, partial curve] |
| Cc1cccc(N2CCN(C(=O)CN(C)S(=O)(=O)c3ccc4c(c3)CCC(=O)N4)CC2)c1C | 35.5 µM [rising, single point] |  |
| C=CCNC(=O)/C(C#N)=C\c1cc(Cl)c(O)c(OCC)c1 | 35.5 µM [rising, single point] | 31.6 µM [rising, single point] |
| C/C(=N\OCc1ccccc1)c1c(O)cc(C(C)C)n(-c2ccccc2)c1=O | 12.6 µM [rising, single point] | 12.6 µM [rising, single point] |
| CCC(C(=O)Nc1ccc(OC)c(Cl)c1)c1ccccc1 (stereo not given) | 14.1 µM [rising, partial curve] |  |
| CN(C)S(=O)(=O)Oc1cccc(C(=O)Nc2ccc([N+](=O)[O-])cc2)c1 | 25.1 µM [falling, partial curve, poor fit] |  |
| CCOC(=O)C1=C(c2ccccc2)NC(SCC(=O)Nc2ccc(C)cc2)=C(C#N)C1c1ccco1 (stereo not given) | 35.5 µM [rising, single point] |  |
| Cc1onc(-c2ccccc2)c1C(=O)N/N=C/C(Br)=C/c1ccccc1 | 11.2 µM [rising, partial curve] | 5.01 µM [rising, partial curve] |
| COc1ccc(-c2cc(C3CCN(Cc4cccc(C(F)(F)F)c4)CC3)[nH]n2)cc1 | 0.00355 µM [rising, full curve, poor fit] |  |
| O=C(NCC(c1ccco1)S(=O)(=O)c1ccc(Cl)cc1)c1ccccc1F (stereo not given) | 0.501 µM [rising, full curve, poor fit] |  |
| Brc1cccc(-c2cnc3n2CCCCC3)c1 | 11.2 µM [rising, partial curve, poor fit] |  |
| O=Nc1c(-c2c(O)[nH]c3cc(Br)ccc23)[nH]c2ccccc12 | 2.82 µM [falling, full curve] | 5.01 µM [falling, full curve] |
| CC(=O)Oc1c(C(=O)c2nnc(C)o2)c(=O)n(Cc2ccccc2)c2ccccc12 | 12.6 µM [rising, partial curve] | 10 µM [rising, partial curve] |
| CC(C)c1ccc(O)c(NC(=O)c2cncc(Br)c2)c1 | 10 µM [rising, partial curve, poor fit] |  |
| Cc1nc(C)c(C(=O)NCc2ccc(Cl)cc2)o1 | 10 µM [rising, partial curve] |  |
| O=S(=O)(Nc1cccc(-c2ccc(N3CCCCC3)nn2)c1)c1cccc(F)c1 |  | 0.0112 µM [falling, full curve, poor fit] |
| O=C(NCCN1CCOCC1)c1cc(Sc2ccccc2Cl)nc2ccccc12 | 5.62 µM [rising, full curve, poor fit] |  |
| CCOC(=O)c1sc(N2N=C(C)/C(=C\c3ccc(OCC(=O)OC)cc3)C2=O)nc1C | 1.41 µM [rising, full curve, poor fit] |  |
| Cc1nn(C)c(C)c1CNC(=O)/C=C/c1ccccc1F | 14.1 µM [rising, partial curve] | 10 µM [rising, partial curve] |
| O=C1CN(C(=O)Cn2ncc(Cl)c(Cl)c2=O)c2ccccc2N1 | 35.5 µM [rising, single point] |  |
| O=C1c2ccccc2-n2c1nc1ccccc1c2=O | 0.355 µM [falling, partial curve] |  |
| O=C1NCC(COCc2ccccc2)O1 (stereo not given) | 4.47 µM [falling, full curve, poor fit] |  |
| COCCNC(=O)/C(C#N)=C/c1nc(N(C)C)n(-c2ccc(F)cc2)c1Cl | 35.5 µM [rising, single point] |  |
